# Screening data, single-dose tests

Sequences of proteins named here, by UniProt entry; tags and fusion partners are left off. Residues count along the entry.
UniProt Q4DA54, 1-478: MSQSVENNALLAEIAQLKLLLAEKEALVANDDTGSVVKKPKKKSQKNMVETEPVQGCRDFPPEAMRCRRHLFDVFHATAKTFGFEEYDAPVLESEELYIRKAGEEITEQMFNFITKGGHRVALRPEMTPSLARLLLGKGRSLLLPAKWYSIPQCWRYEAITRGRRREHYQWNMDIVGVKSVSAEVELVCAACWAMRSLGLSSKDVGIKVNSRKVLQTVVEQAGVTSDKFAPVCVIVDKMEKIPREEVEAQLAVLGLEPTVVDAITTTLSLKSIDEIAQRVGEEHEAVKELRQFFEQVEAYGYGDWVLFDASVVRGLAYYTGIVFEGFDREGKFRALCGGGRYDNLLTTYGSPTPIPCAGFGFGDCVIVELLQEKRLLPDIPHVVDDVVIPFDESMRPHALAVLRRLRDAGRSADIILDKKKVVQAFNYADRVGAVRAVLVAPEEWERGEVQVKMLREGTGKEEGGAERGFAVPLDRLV
UniProt P9WNZ1, whole entry: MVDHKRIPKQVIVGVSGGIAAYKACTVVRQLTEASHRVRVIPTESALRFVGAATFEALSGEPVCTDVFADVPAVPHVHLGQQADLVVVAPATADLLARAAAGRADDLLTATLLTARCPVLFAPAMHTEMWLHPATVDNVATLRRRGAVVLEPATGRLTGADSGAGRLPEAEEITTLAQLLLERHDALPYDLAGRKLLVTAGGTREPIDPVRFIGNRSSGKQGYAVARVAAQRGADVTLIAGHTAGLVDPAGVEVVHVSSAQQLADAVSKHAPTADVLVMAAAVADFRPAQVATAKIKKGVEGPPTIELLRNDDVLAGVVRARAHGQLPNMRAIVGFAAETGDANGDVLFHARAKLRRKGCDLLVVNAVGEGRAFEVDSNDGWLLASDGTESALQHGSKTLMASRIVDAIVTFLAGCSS

The values are deposited in ChEMBL (CHEMBL3988442, “University of Dundee, Small-Polar-MMV Screening Library” (2021)).

A: 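Enzyme assay of histidyl-tRNA synthetase; the read-out is not stated. Target: Histidine-tRNA ligase, Trypanosoma cruzi CL Brener (UniProt Q4DA54). Compounds at 30 µM. Direction is inferred from retests: higher values go with stronger inhibition. Of about 69,000 compounds tested this way, about 31 (0.045%) reached 50% or more in at least one test.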
B: 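Enzyme assay of CoaBC with a phosphate dye (Biomol Green) read at 650 nm. Target: Coenzyme A biosynthesis protein CoaBC, Mycobacterium tuberculosis (UniProt P9WNZ1). Concentration: 30 µM. Direction is inferred from only a few compounds that gave an IC50; most scored high, so higher reads as stronger inhibition. Most strong results did not repeat in a second test. Of about 67,000 compounds tested this way, about 40 (0.06%) reached 50% or more in at least one test.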

Values are the deposited “Percent Effect”, in %.
The controls that fix the scale are not given in the record; negative values are as filed.
This is an unselected part of the compounds tested.
A dash means the value is not listed here; it may have been measured.

Compound | A | B
COc1cc(F)ccc1C(C(=O)O)N(C)CCN1CCOCC1 (stereo unspecified) | 4.516 | 0.9662
COc1cccc2c1OCC(C(=O)N1CCN(CCS(C)(=O)=O)CC1)C2 (stereo unspecified) | 2.513 | -3.739
COc1cccc(C2CCCN2C(=O)c2cc3c([nH]c2=O)CCC3)c1 (stereo unspecified) | -8.021 | 6.418
CO[C@H]1CCN(C(=O)c2ccsc2)[C@@H]2CN(CC3CC3)C[C@H]12 | -0.9709 | 2.96
CCCc1n[nH]c(C2CN(C(=O)c3cc(F)ccc3OC)CCO2)n1 (stereo unspecified) | -1.515 | 10.85
CN(Cc1cnn(C)c1)S(=O)(=O)N1CCCC1c1ccco1 (stereo unspecified) | 2.703 | 0.4274
COCC(=O)N1CC[C@]2(O)CCN(Cc3ccsc3)C[C@@H]2C1 | 7.921 | -1.205
CN(C)S(=O)(=O)N1C[C@@H]2CC[C@H](C1)N(Cc1ccc3nsnc3c1)C2 | 0.813 | -4.219
COC[C@@H]1CCC[C@]12CN(S(=O)(=O)c1cccs1)CCO2 | 7.362 | -
CC(C)N1CCC(NCc2cccnc2N(C)Cc2ccccc2)CC1 | 2.905 | -20.98
CC(C)Cc1noc(CN(C)C2CCCC2)n1 | 0 | 0.1227
CC(=O)N1CCCC1c1ccc(-c2c(C)noc2C)cn1 (stereo unspecified) | 1.622 | 3.611
CN1C(=O)CO[C@H]2CCN(C(=O)Cc3ccc4c(c3)CCCC4)CC[C@@H]21 | 10.61 | 3.154
O=C(NC1CC1)NC(c1ccc(F)cc1)C1CC1 (stereo unspecified) | 7.792 | -
Cc1cccn2c(=O)cc(OC(=O)c3ccccc3)nc12 | -3.261 | 3.914
CCCc1nc(CN(CC)Cc2ccc(S(C)(=O)=O)cc2)no1 | 3.017 | 1.141
Cc1cccc(NCC(=O)Nc2cc(F)ccc2F)c1C(N)=O | 1.339 | 3.571
CN(c1cccc2ccccc12)S(=O)(=O)c1cc(C(=O)O)cs1 | -1.064 | 2.008
O=C1CC(N(C(=O)c2ccc(F)c(C(F)(F)F)c2)C2CC2)C(=O)N1 (stereo unspecified) | 4 | 1.312
CCOc1ccc(-n2nc(C)c(CC(C)=O)c2C)cc1C(N)=O | 4.046 | 16.94
c1ccc2oc(N3CCC(c4nncn4C4CC4)CC3)nc2c1 | 5.455 | 0.7299
COc1cc(OC)nc(N2CCCC(c3nccn3CCN(C)C)C2)n1 (stereo unspecified) | 4.036 | 1.777
Cc1ccc2nc3n(c2c1)[C@@H](CNCc1nccs1)COC3 | 3.483 | 7.097
Cc1nn(C)c(Cl)c1C1CCCN1C(=O)c1cnn(C)c1C1CC1 (stereo unspecified) | 2.579 | 9.068
CC(C)C1SCC(=O)Nc2c1cnn2-c1ccc(Cl)cc1 (stereo unspecified) | 6.931 | -1.823
Oc1ccc(Cl)cc1CNCc1ccccc1C(F)(F)F | 4.663 | 1.459
CN1CCN(C(=O)C2(NC(N)=O)CCCCC2)Cc2ccccc21 | 6.173 | 4.049
CC(NC(=O)NCc1ccccc1Cl)c1ccccn1 (stereo unspecified) | 8.832 | -9.383
Cc1noc(C)c1-c1cccc(C2CN(CC(=O)N(C)C)CCO2)n1 (stereo unspecified) | 3.03 | -4.439
Cn1cc(S(=O)(=O)NC(CO)Cc2c[nH]c3ccccc23)cn1 (stereo unspecified) | 7.792 | -
Cc1nc(NC2CCCC2)cc(C2CCN2C(=O)c2ccccn2)n1 (stereo unspecified) | 6.667 | 7.264
OCCCN(CCn1cncn1)c1ccccc1 | 6.637 | 1.869
NCCn1nc(C2CCN(Cc3ccc(Cl)c(Cl)c3)C2)c2nccnc21 (stereo unspecified) | -2.703 | -3.056
Cc1cc(C(=O)NCc2ccnc(OCC(F)(F)F)c2)on1 | -2.367 | 0.3802
Cn1cncc1CNC1CC2(CCN(S(C)(=O)=O)CC2)c2ccccc21 (stereo unspecified) | 1.266 | -
COc1ccc(C(C)NCCc2ccc(NC(C)=O)cc2)cc1F (stereo unspecified) | 5.025 | 3.883
CN1C(=O)C2(CCN(Cc3nccn3C)CC2)c2ccccc21 | -0.9709 | 1.527
Cn1cc(CN2CCCn3cnc(COCc4ccco4)c3C2)cn1 | 2.488 | -6.774
CCCSc1ccccc1NC(=O)N1CCN(C(=O)c2ccc[nH]2)CC1 | 10.5 | -10.53
COCCCOc1ccc(C(=O)N(Cc2cnn(C)c2)C(C)C)cn1 | 1.02 | 1.08
COc1ccc(Br)cc1CN(C)C(C)c1nc(C(C)C)no1 (stereo unspecified) | 6.024 | 4.95
CN(CCN1CCOC1=O)CC(=O)Nc1cc(F)cc(F)c1 | -0.5848 | 1.263
Cn1cc(Cl)c(C(=O)N2CCCN(C3Cc4ccccc4C3)CC2)n1 | 0 | 0.9756
O=C(c1ccc(=O)[nH]n1)N1CCNCC1c1ccccc1 (stereo unspecified) | 1.88 | 6.993
COC(C)c1nc(CN2CCCNCC2)cs1 (stereo unspecified) | -37.11 | -0.489
CN(C)C(CNC(=O)c1cccc(C(N)=O)c1)c1ccccc1Cl (stereo unspecified) | 5.263 | 4.248
CNC(=O)c1cnc(C)nc1CCNC(=O)CCc1ccccc1 | 1.55 | -2.822
Cc1cc(NC(=O)CN2CCC(N(C)Cc3ncc(C)o3)C2)n(C)n1 (stereo unspecified) | 1.143 | -4.462
CC(C)OCCCN(Cc1cnn(C)c1)Cc1ccccn1 | 6.513 | 4.126
CCNC(=O)[C@@H]1CN(Cc2ccccc2)C[C@H]1C(=O)c1ccc(F)cc1 | 6.215 | -12.83
O=C(C1CCC1)N1CC[C@]2(O)CCN(Cc3ncccn3)C[C@@H]2C1 | -5.102 | 9.287
Cc1ccc2c(c1)c(CNC(=O)C1CCCN(CC(N)=O)C1)nn2C (stereo unspecified) | 7.263 | -12.1
CN(C)C(=O)CO[C@H]1CN(Cc2ccc(F)cc2)[C@@H]2CCCO[C@H]12 | 3.347 | -3.182
Cc1cccc(C(CNC(=O)NCc2cc[nH]n2)N2CCOCC2)c1 (stereo unspecified) | 3.529 | 0.2558
CNc1ncc(C(=O)N2CC[C@@](O)(C3CCOCC3)[C@H](C)C2)cn1 | 5.528 | -2.292
CC(C)CC(=O)N1CCN(c2cc(N(C)C)cnn2)CC1 | 1.031 | -4.44
COCC1CN(Cc2ccc(F)cc2)Cc2nn(C)cc21 (stereo unspecified) | 7.563 | -7.099
Cc1cnc(N2CCC3(CC2)CN(c2ccsc2)C(=O)CO3)nc1 | 5.747 | 3.893
CC1CN(C(=O)c2cc(=O)[nH]c3ccc(F)cc23)CCO1 (stereo unspecified) | 1.299 | -
c1csc(-c2nc(CN3CCCC3Cn3cncn3)co2)c1 (stereo unspecified) | 5.785 | -7.889
O=C(c1ccc(Cl)s1)N1CCC2(COc3ncccc3S(=O)(=O)N2)C1 (stereo unspecified) | -0.5917 | 0.2632
O=C(CO)N1CCOC2(CCCN(c3ncc(F)cn3)C2)C1 (stereo unspecified) | 2.299 | 12.09
O=C(NC[C@]12COC[C@H]1CN(Cc1cccs1)C2)c1ccsc1 | 2.479 | -10.92
COc1ncc(CN2CCOC(Cc3cccc4ccccc34)C2)cn1 (stereo unspecified) | -2.703 | 0